The numbers were not newly measured in US20100113392A1, “METHODS OF USING SAHA AND BORTEZOMIB FOR TREATING MULTIPLE MYELOMA” (priority 2006, published 2010), which cites them from elsewhere.

In this data set the test system is carcinogen-induced (N-methylnitrosourea) mammary tumors. The settings on record: rats, SAHA in diet over the 130 days of the study; cited from earlier work.

Take `O=C(CCCCCCC(=O)Nc1ccccc1)NO` [Vorinostat, N-Hydroxy-N′-phenyl octanediamide]: the “inhibition of development and growth of mammary tumors” value was “effective at inhibiting the development and continued growth”.
